# Measurements reported in PubChem BioAssay AID504467 (National Center for Advancing Translational Sciences (NCATS), 2011).
# Hit rate of the full screen: of about 330,000 compounds, about 7,700 (2.3%) were called active. Inconclusive means that the source gave no clear call. Such entries were picked first, then a sample of the others. The call rests on the fitted dose curve; in most records, active means well fitted inhibition curve with a large enough effect; inconclusive means small, poorly fitted or top-dose-only effect, or effect the other way; inactive means flat fitted curve, though single readings scatter. Potencies of inconclusive entries are doubtful fits and often do not repeat.
# Test: qHTS screen for small molecules that inhibit ELG1-dependent DNA repair in human embryonic kidney (HEK293T) cells expressing luciferase-tagged ELG1; further: nearly all actives have a fitted effect of over 55% in size
# Conditions: HEK293T ELG1-luciferase reporter, luminescence, 16 h, DNA damage induced by 5-fluorouridine; activity change, negative = inhibition: at 46.1 µM (top of the series)
# Procedure, shortened: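 Reporter activity after DNA damage by 5-fluorouridine is monitored. Compound-treated cells incubate 16 hr at 37 °C, then ONE-Glo is added for 30 min before luminescence reading.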
# On the % scale 0 is the no-effect control and ±100 the full control effect; potency means the concentration at half of the fitted maximal effect.
Structure (SMILES),Potency,"activity change, negative = inhibition"
Cc1noc(C)c1COc1cccc(C(=O)NCCc2c[nH]c3ccccc23)c1,"inconclusive: 29.1 µM [inhibitor, single point]",
Cc1nnc2n(c1=O)N=C(c1ccc(Cl)cc1)CS2,"inconclusive: 4.11 µM [activator, partial curve]",
Sc1nnc(-c2ccc(Cl)cc2)n1Cc1ccccc1,,inactive: 20.2%
Cc1ccc(CNC(=O)c2cc3c(s2)CS(=O)(=O)C3)cc1,"inconclusive: 18.3 µM [activator, partial curve, poor fit]",
COc1ccccc1C(=O)Nc1ccc2c(c1)OCCO2,"inconclusive: 8.2 µM [activator, partial curve]",
O=C(c1cc(COc2ccc(F)cc2Cl)on1)N1CCCCC1c1cccnc1 (stereo not drawn),,inactive: 0.459%
Cc1c(O)ccc(/C=N/Nc2ncccc2[N+](=O)[O-])c1O,"inconclusive: 1.16 µM [activator, partial curve]",
COCC(=O)OCC(=O)N1N=C(c2ccc(Cl)cc2)CC1c1ccco1 (stereo not drawn),,inactive: 11.4%
COc1cccc(-c2sc3ccc(OC)cc3c2-c2ccc(OC)cc2F)c1,"inconclusive: 16.4 µM [activator, partial curve]",
Cc1noc(C)c1NC(=O)N(C)C[C@H]1Oc2ccc(NC(=O)Nc3ccc4c(c3)OCO4)cc2C(=O)N([C@H](C)CO)C[C@@H]1C,"inconclusive: 20.6 µM [activator, partial curve, poor fit]",
COc1cc([N+](=O)[O-])ccc1NC(=O)c1cccc(NC(=O)C(C)C)c1,"inconclusive: 23.1 µM [inhibitor, single point]",
CCOC(=O)N1CCC(=NNc2ccnc3cc(Cl)ccc23)CC1,"inconclusive: 29.1 µM [inhibitor, single point]",
CCCOC(=O)C(=O)NNc1ccccc1,,inactive: 0%
FC(F)Oc1ccc(NC(=S)NC23CC4CC(CC(C4)C2)C3)cc1,,inactive: -17.9%
COc1ccc(Cl)cc1NC(=O)CN(C)C(=O)c1ccc(N2CCCCCC2)c([N+](=O)[O-])c1,"inconclusive: 29.1 µM [inhibitor, single point]",
Cc1ccc(S(=O)(=O)N2CCOCC2)cc1C(=O)Nc1ccccc1F,,inactive: 0.415%
CC(=O)Nc1ccc2c(c1)ncn2-c1ccc(C)cc1,"inconclusive: 5.8 µM [activator, partial curve]",
COCCNc1nc2c(c(=O)n(C)c(=O)n2C)n1Cc1cccc(C(F)(F)F)c1,,inactive: -12.8%
O=c1cc(CSc2ccc([N+](=O)[O-])cc2)nc2sccn12,,inactive: 0%
Cn1cccc1-c1nc2ccccc2n1Cc1ccccc1,"inconclusive: 32.6 µM [inhibitor, partial curve, poor fit]",
CCOC(=O)c1c(C)oc2c1c(CN1CCN(CCO)CC1)c(O)c1ccccc12,"inconclusive: 29.1 µM [activator, single point]",
O=c1[nH]c2cc3c(cc2cc1CN(Cc1nnnn1CC1CCCO1)C1CCCCC1)OCO3 (stereo not drawn),"inconclusive: 20.6 µM [inhibitor, single point]",
Cc1cc(C)c(S(=O)(=O)N2CCN(c3ccccc3)CC2)c(C)c1,,inactive: -7.59%

# Shown with tabs: 3 of the compounds above
Structure (SMILES)	Potency	activity change, negative = inhibition
Cc1noc(C)c1COc1cccc(C(=O)NCCc2c[nH]c3ccccc23)c1	inconclusive: 29.1 µM [inhibitor, single point]	
COc1cc([N+](=O)[O-])ccc1NC(=O)c1cccc(NC(=O)C(C)C)c1	inconclusive: 23.1 µM [inhibitor, single point]	
O=c1[nH]c2cc3c(cc2cc1CN(Cc1nnnn1CC1CCCO1)C1CCCCC1)OCO3 (stereo not drawn)	inconclusive: 20.6 µM [inhibitor, single point]	

# (continued)

Structure (SMILES),Potency,"activity change, negative = inhibition"
O=C(C#Cc1cccc([N+](=O)[O-])c1)c1ccccc1,"inconclusive: 25.9 µM [inhibitor, partial curve, poor fit]",
CCOC(=O)c1cn2nc(N3CCCCC3)ccc2n1,"inconclusive: 1.46 µM [activator, partial curve]",
O=C(/C=C/c1c(Cl)nc2ccccn12)N1CCN(c2ccc(F)cc2)CC1,"inconclusive: 18.3 µM [inhibitor, partial curve]",
CC(=O)Nc1ccc(S(=O)(=O)Oc2ccc(C(=S)N3CCCCC3)cc2)cc1,"inconclusive: 16.4 µM [inhibitor, partial curve, poor fit]",
Cc1cccc(CC(=O)Nc2cc(C)c3c(=O)oc4ccccc4c3n2)c1,"inconclusive: 3.66 µM [inhibitor, single point]",
Cc1cc(C)c(OCC(=O)OCC(=O)N2CCCc3ccccc32)c(C)c1,,inactive: 18.2%
COc1ccc(C2CCCN2C(=S)Nc2ccc(C)cc2Cl)cc1OC (stereo not drawn),"inconclusive: 23.1 µM [inhibitor, single point]",
C=CCn1c(SCC(=O)Nc2ccc3c(c2)CCC3)nc2ccccc2c1=O,"inconclusive: 23.1 µM [inhibitor, single point]",
COc1ccc(CNS(=O)(=O)c2ccc(F)c(C(=O)Nc3ccccc3OC)c2)cc1,"inconclusive: 29.1 µM [activator, single point]",
CCCCc1ccc(/C=C(\C#N)C(N)=S)s1,,inactive: 4.6%
COc1cc(CC(=O)Nc2ccc(Cl)c(C(F)(F)F)c2)cc(OC)c1OC,"inconclusive: 29.1 µM [inhibitor, single point]",
CC1(C)Cc2c(sc3[nH]c(=S)n(Cc4ccccc4)c(=O)c23)CO1,"inconclusive: 16.4 µM [inhibitor, single point]",
c1ccc(OCCOc2ccccc2-c2nnco2)cc1,"inconclusive: 16.4 µM [activator, partial curve]",
O=C(O)c1cc(Sc2ccc(Br)cc2)nc2ccccc12,,inactive: 11.9%
COc1ccc(OC)c(NC(=O)CN(C)S(=O)(=O)c2ccc3nc(C)sc3c2)c1,"inconclusive: 29.1 µM [inhibitor, single point]",
CCNC(=S)N(CCc1ccc(OC)c(OC)c1)Cc1cc2cc(OC)ccc2[nH]c1=O,"inconclusive: 20.6 µM [inhibitor, single point]",
COc1ccc(CC(=O)Nc2nc(-c3ccc(OC)c(OC)c3)cs2)cc1OC,active: 18.3 µM,
CCOC(=O)N1CCC(N2C(=O)c3ccccc3C2Nc2cc(C(=O)OC)cc(C(=O)OC)c2)CC1 (stereo not drawn),"inconclusive: 18.4 µM [inhibitor, single point]",
CCOCC(=O)Nc1ccccc1C(=O)O,,inactive: 3.27%
O=C(Nc1ccccc1)C1C2/C=C\CCCCC21 (stereo not drawn),"inconclusive: 14.6 µM [activator, partial curve, poor fit]",
Cc1ccccc1C(=O)Nc1ccccc1C(=O)NCc1ccccc1,"inconclusive: 25.9 µM [inhibitor, single point]",
COc1cc(Cl)c(S(=O)(=O)NCCCN2CCOCC2)cc1Cl,"inconclusive: 23.1 µM [inhibitor, partial curve, poor fit]",
CN1CCN(C(=S)SCC(=O)Nc2nc(-c3ccccc3)c(-c3ccccc3)o2)CC1,"inconclusive: 20.6 µM [inhibitor, single point]",

Structure (SMILES),Potency,"activity change, negative = inhibition"
Cc1ccsc1C(=O)OCC(=O)N1CCN(c2ccccc2)CC1,"inconclusive: 20.6 µM [activator, single point]",
CN1CCN(c2nc(-c3ccc(C(C)(C)C)cc3)nc3ccccc23)CC1,"inconclusive: 4.61 µM [activator, partial curve]",
Cc1cccc(NC(=O)c2cccc(Cn3cc(Br)c([N+](=O)[O-])n3)c2)c1C,"inconclusive: 7.31 µM [inhibitor, single point]",
COc1ccc(-c2nn(-c3ccccc3)cc2/C=N/NC(=O)c2ccc(Br)o2)cc1,"inconclusive: 25.9 µM [inhibitor, single point]",
Cn1c(N)c(C(=O)COC(=O)CC2CC3CCC2C3)c(=O)n(C)c1=O (stereo not drawn),,inactive: -14.5%
Cc1c(O)ccc2c(=O)c(-c3nncn3-c3ccccc3)coc12,"inconclusive: 3.66 µM [inhibitor, partial curve, poor fit]",
CCOC(=O)c1nc(Nc2ccc(C(=O)OC)cc2)c2ccccc2n1,active: 4.11 µM,
O=c1cc(-c2ccccc2Cl)oc2c(Br)ccc(O)c12,"inconclusive: 10.3 µM [activator, partial curve, poor fit]",
COCC1CCN(C(=O)c2cc(COc3ccc(F)cc3F)on2)C1 (stereo not drawn),"inconclusive: 16.4 µM [activator, single point]",
CC(=O)Nc1ccc(NC(=O)COc2ccccc2C(=O)Nc2cccc(Cl)c2Cl)cc1,"inconclusive: 6.51 µM [inhibitor, single point]",
S=C(NCCc1ccccc1)N1CCOCC1,"inconclusive: 18.3 µM [activator, single point]",
COc1cc(NS(=O)(=O)c2ccc(C)cc2)c2ncccc2c1,"inconclusive: 20.6 µM [inhibitor, single point]",
Cc1ccc(C(=O)Nc2cccc(NC(=O)c3cccs3)c2)c(C)c1,,inactive: -18.1%
CC(=O)CSc1nc2ccccc2o1,"inconclusive: 18.4 µM [activator, partial curve]",
O=C(Nc1ccc(Oc2cccnc2)cc1)C1CCN(Cc2cc(Cl)ccc2O)CC1,"inconclusive: 4.11 µM [inhibitor, partial curve, poor fit]",
c1ccc(-c2cn(-c3ccccc3)c3ncnc(NCCCN4CCOCC4)c23)cc1,,inactive: -15.4%
CCCCCOc1ccc(NC(=O)CCCC(=O)O)cc1,,inactive: 19.1%
CC(=O)N1c2ccc(S(=O)(=O)N3CCC(C(=O)Nc4ccccn4)CC3)cc2CC1C (stereo not drawn),"inconclusive: 29.1 µM [inhibitor, single point]",
CCOC(=O)c1c(CSc2ccccc2)n(C)c2cc(Br)c(OCC(O)CNC(CO)(CO)CO)cc12 (stereo not drawn),"inconclusive: 32.6 µM [inhibitor, single point]",
CC(Cc1cccs1)NC(=S)Nc1ccc(Cl)cc1 (stereo not drawn),,inactive: 1.86%
Cc1cccc(N2C(=O)/C(=C\c3ccc(C(=O)O)cc3)c3ccccc3C2=O)c1,"inconclusive: 23.1 µM [activator, partial curve, poor fit]",
Cc1nc(SCCc2ccccc2)[nH]c(=O)c1C,"inconclusive: 32.6 µM [activator, single point]",
